From publication PMC6704344, “The Preclinical Pharmacological Study of a Novel Long-Acting Local Anesthetic, a Fixed-Dose Combination of QX-OH/Levobupivacaine, in Rats” (Frontiers in Pharmacology, 2019) come the findings set out here.

This series is described as follows: Plasma pharmacokinetics after sciatic nerve block in rats. As to conditions: Lidocaine/Levo-Bupi (35 mM/10 mM), n = 10. The class given is in vivo, rat. The procedure:
In brief, rats were anesthetized by inhaling 1%–2% isoflurane mixed with oxygen through an inhouse-made mask. Then, the rats were placed at right lateral position and inserted vertically using a 23-gauge injector at the middle of the line from the greater trochanter to ischial tuberosity ([Binshtok et al., 2007]; [Zhang et al., 2017b]). Once the bone has been contacted, 200 μl drug was injected.
According to the China Food and Drug Administration guidance for preclinical pharmacokinetic study, there should be more than three sampling points adjacent to the time to reach the maximum concentration. In our preliminary experiment, the time to maximum concentration of Levo-Bupi, as a single drug in the rat sciatic nerve block, was 0.5 h. Thus, to obtain an accurate value of the maximum concentration of Levo-Bupi, we added another time point at 0.33 h. […]
The parameters of pharmacokinetics were analyzed by DAS® (Drug and Statistics, version 3.2.1, China) using noncompartmental model. In this study, the following pharmacokinetic parameters were calculated: the value of maximum concentration (Cmax) and the time to acquire (Tmax); the elimination half-life (t1/2); area under curve (AUC) from zero to the last time point (AUC0–last) and from zero to infinity (AUC0–∞); clearance (CL/F), and volume of distribution (Vd/F).

Consider `CCN(CC)CC(=O)Nc1c(C)cccc1C` [lidocaine], for which the “effect on the absorption of Levo-Bupi” value is recorded as “did not have a similar effect”.
